In the supplement of paper PMC8728848:
Some of the results follow.

Tests used:
Test in all cases: glycan array binding signal (z-score within array); higher = stronger binding
Conditions in all cases: glycan notation: IUPAC condensed, linker removed
[1] = molecular target: GlcNAc(a1-6)Gal(b1-4)GlcNAc
In short: (§1)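 Glycan array data were curated from 3228 arrays in the Consortium for Functional Glycomics database and kept only where the protein sequence was available. Glycan names were converted to IUPAC-condensed notation, and columns mapping to the same glycan were averaged. The binding signal is a within-array Z-score, averaged across arrays of the same protein sequence at different concentrations or buffers and across linkers. Negative Z-scores can be read as non-binding.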

[2] = molecular target: GlcNAc(b1-2)Gal(b1-3)GalNAc
In short: as §1

[3] = molecular target: GlcNAc(b1-2)Man(a1-3)[GlcNAc(b1-2)Man(a1-6)]Man(b1-4)GlcNAc(b1-4)GlcNAc
In short: as §1

[4] = molecular target: GlcNAc(b1-2)Man(a1-3)[GlcNAc(b1-2)Man(a1-6)]Man(b1-4)GlcNAc(b1-4)[Fuc(a1-6)]GlcNAc
In short: as §1

[5] = molecular target: GlcNAc(b1-2)Man(a1-3)[GlcNAc(b1-4)][GlcNAc(b1-2)Man(a1-6)]Man(b1-4)GlcNAc(b1-4)GlcNAc
In short: as §1

[6] = molecular target: GlcNAc(b1-2)Man(a1-3)[GlcNAc(b1-4)][GlcNAc(b1-2)Man(a1-6)]Man(b1-4)GlcNAc(b1-4)[Fuc(a1-6)]GlcNAc
In short: as §1

[7] = molecular target: GlcNAc(b1-2)[GlcNAc(b1-4)]Man(a1-3)[GlcNAc(b1-2)Man(a1-6)]Man(b1-4)GlcNAc(b1-4)GlcNAc
In short: as §1

[8] = molecular target: GlcNAc(b1-2)[GlcNAc(b1-4)]Man(a1-3)[GlcNAc(b1-4)][GlcNAc(b1-2)Man(a1-6)]Man(b1-4)GlcNAc(b1-4)GlcNAc
In short: as §1

[9] = molecular target: GlcNAc(b1-2)[GlcNAc(b1-4)]Man(a1-3)[GlcNAc(b1-4)][GlcNAc(b1-2)[GlcNAc(b1-6)]Man(a1-6)]Man(b1-4)GlcNAc(b1-4)GlcNAc
In short: as §1

[10] = molecular target: GlcNAc(b1-2)[GlcNAc(b1-4)]Man(a1-3)[GlcNAc(b1-4)][GlcNAc(b1-2)[GlcNAc(b1-6)]Man(a1-6)]Man(b1-4)GlcNAc(b1-4)[Fuc(a1-6)]GlcNAc
In short: as §1

[11] = molecular target: GlcNAc(b1-2)[GlcNAc(b1-6)]Man(a1-6)[GlcNAc(b1-2)Man(a1-3)]Man(b1-4)GlcNAc(b1-4)GlcNAc
In short: as §1

[12] = molecular target: GlcNAc(b1-2)[GlcNAc(b1-6)]Man(a1-6)[GlcNAc(b1-2)Man(a1-3)]Man(b1-4)GlcNAc(b1-4)[Fuc(a1-6)]GlcNAc
In short: as §1

[13] = molecular target: GlcNAc(b1-2)[GlcNAc(b1-6)]Man(a1-6)[GlcNAc(b1-4)][GlcNAc(b1-2)Man(a1-3)]Man(b1-4)GlcNAc(b1-4)GlcNAc
In short: as §1

GlcNAc(b1-3)Fuc = molecular target: GlcNAc(b1-3)Fuc
In short: as §1

GlcNAc(b1-3)Gal = molecular target: GlcNAc(b1-3)Gal
In short: as §1

[14] = molecular target: GlcNAc(b1-3)Gal(b1-3)GalNAc
In short: as §1

GlcNAc(b1-3)Gal(b1-4)Glc = molecular target: GlcNAc(b1-3)Gal(b1-4)Glc
In short: as §1

[15] = molecular target: GlcNAc(b1-3)Gal(b1-4)GlcNAc
In short: as §1

[16] = molecular target: GlcNAc(b1-3)Gal(b1-4)GlcNAc(b1-2)Man(a1-3)[GlcNAc(b1-3)Gal(b1-4)GlcNAc(b1-2)Man(a1-6)]Man(b1-4)GlcNAc(b1-4)GlcNAc
In short: as §1

[17] = molecular target: GlcNAc(b1-3)Gal(b1-4)GlcNAc(b1-2)Man(a1-3)[GlcNAc(b1-3)Gal(b1-4)GlcNAc(b1-2)Man(a1-6)]Man(b1-4)GlcNAc(b1-4)[Fuc(a1-6)]GlcNAc
In short: as §1

[18] = molecular target: GlcNAc(b1-3)Gal(b1-4)GlcNAc(b1-2)[GlcNAc(b1-3)Gal(b1-4)GlcNAc(b1-6)]Man(a1-6)[GlcNAc(b1-3)Gal(b1-4)GlcNAc(b1-2)Man(a1-3)]Man(b1-4)GlcNAc(b1-4)GlcNAc
In short: as §1

[19] = molecular target: GlcNAc(b1-3)Gal(b1-4)GlcNAc(b1-3)Gal(b1-4)GlcNAc
In short: as §1

[20] = molecular target: GlcNAc(b1-3)Gal(b1-4)GlcNAc(b1-3)Gal(b1-4)GlcNAc(b1-2)Man(a1-3)[GlcNAc(b1-3)Gal(b1-4)GlcNAc(b1-3)Gal(b1-4)GlcNAc(b1-2)Man(a1-6)]Man(b1-4)GlcNAc(b1-4)GlcNAc
In short: as §1

[21] = molecular target: GlcNAc(b1-3)Gal(b1-4)GlcNAc(b1-3)Gal(b1-4)GlcNAc(b1-2)Man(a1-3)[GlcNAc(b1-3)Gal(b1-4)GlcNAc(b1-3)Gal(b1-4)GlcNAc(b1-2)Man(a1-6)]Man(b1-4)GlcNAc(b1-4)[Fuc(a1-6)]GlcNAc
In short: as §1

[22] = molecular target: GlcNAc(b1-3)Gal(b1-4)GlcNAc(b1-3)Gal(b1-4)GlcNAc(b1-2)[GlcNAc(b1-3)Gal(b1-4)GlcNAc(b1-3)Gal(b1-4)GlcNAc(b1-6)]Man(a1-6)[GlcNAc(b1-3)Gal(b1-4)GlcNAc(b1-3)Gal(b1-4)GlcNAc(b1-2)Man(a1-3)]Man(b1-4)GlcNAc(b1-4)[Fuc(a1-6)]GlcNAc
In short: as §1

[23] = molecular target: GlcNAc(b1-3)Gal(b1-4)GlcNAc(b1-3)Gal(b1-4)GlcNAc(b1-3)Gal(b1-4)GlcNAc(b1-2)Man(a1-3)[GlcNAc(b1-3)Gal(b1-4)GlcNAc(b1-3)Gal(b1-4)GlcNAc(b1-3)Gal(b1-4)GlcNAc(b1-2)Man(a1-6)]Man(b1-4)GlcNAc(b1-4)GlcNAc
In short: as §1

[24] = molecular target: GlcNAc(b1-3)Gal(b1-4)GlcNAc(b1-3)Gal(b1-4)GlcNAc(b1-3)Gal(b1-4)GlcNAc(b1-2)Man(a1-3)[GlcNAc(b1-3)Gal(b1-4)GlcNAc(b1-3)Gal(b1-4)GlcNAc(b1-3)Gal(b1-4)GlcNAc(b1-2)Man(a1-6)]Man(b1-4)GlcNAc(b1-4)[Fuc(a1-6)]GlcNAc
In short: as §1

[25] = molecular target: GlcNAc(b1-3)Gal(b1-4)GlcNAc(b1-3)Gal(b1-4)GlcNAc(b1-3)Gal(b1-4)GlcNAc(b1-2)[GlcNAc(b1-3)Gal(b1-4)GlcNAc(b1-3)Gal(b1-4)GlcNAc(b1-3)Gal(b1-4)GlcNAc(b1-6)]Man(a1-6)[GlcNAc(b1-3)Gal(b1-4)GlcNAc(b1-3)Gal(b1-4)GlcNAc(b1-3)Gal(b1-4)GlcNAc(b1-2)Man(a1-3)]Man(b1-4)GlcNAc(b1-4)[Fuc(a1-6)]GlcNAc
In short: as §1

[26] = molecular target: GlcNAc(b1-3)Gal(b1-4)GlcNAc(b1-3)Gal(b1-4)GlcNAc(b1-3)Gal(b1-4)GlcNAc(b1-3)Gal(b1-4)GlcNAc(b1-2)Man(a1-3)[GlcNAc(b1-3)Gal(b1-4)GlcNAc(b1-3)Gal(b1-4)GlcNAc(b1-3)Gal(b1-4)GlcNAc(b1-3)Gal(b1-4)GlcNAc(b1-2)Man(a1-6)]Man(b1-4)GlcNAc(b1-4)GlcNAc
In short: as §1

[27] = molecular target: GlcNAc(b1-3)Gal(b1-4)GlcNAc(b1-3)Gal(b1-4)GlcNAc(b1-3)Gal(b1-4)GlcNAc(b1-3)Gal(b1-4)GlcNAc(b1-2)Man(a1-3)[GlcNAc(b1-3)Gal(b1-4)GlcNAc(b1-3)Gal(b1-4)GlcNAc(b1-3)Gal(b1-4)GlcNAc(b1-3)Gal(b1-4)GlcNAc(b1-2)Man(a1-6)]Man(b1-4)GlcNAc(b1-4)[Fuc(a1-6)]GlcNAc
In short: as §1

[28] = molecular target: GlcNAc(b1-3)Gal(b1-4)GlcNAc(b1-3)Gal(b1-4)GlcNAc(b1-3)Gal(b1-4)GlcNAc(b1-3)Gal(b1-4)GlcNAc(b1-2)[GlcNAc(b1-3)Gal(b1-4)GlcNAc(b1-3)Gal(b1-4)GlcNAc(b1-3)Gal(b1-4)GlcNAc(b1-3)Gal(b1-4)GlcNAc(b1-6)]Man(a1-6)[GlcNAc(b1-3)Gal(b1-4)GlcNAc(b1-3)Gal(b1-4)GlcNAc(b1-3)Gal(b1-4)GlcNAc(b1-3)Gal(b1-4)GlcNAc(b1-2)Man(a1-3)]Man(b1-4)GlcNAc(b1-4)[Fuc(a1-6)]GlcNAc
In short: as §1

[29] = molecular target: GlcNAc(b1-3)Gal(b1-4)GlcNAc(b1-3)Gal(b1-4)GlcNAc(b1-3)GalNAc
In short: as §1

[30] = molecular target: GlcNAc(b1-3)Gal(b1-4)GlcNAc(b1-3)GalNAc
In short: as §1

[31] = molecular target: GlcNAc(b1-3)Gal(b1-4)GlcNAc(b1-3)[GlcNAc(b1-3)Gal(b1-4)GlcNAc(b1-3)]GalNAc
In short: as §1

[32] = molecular target: GlcNAc(b1-3)Gal(b1-4)GlcNAc(b1-6)[Gal(b1-3)]GalNAc
In short: as §1

[33] = molecular target: GlcNAc(b1-3)Gal(b1-4)GlcNAc(b1-6)[GlcNAc(b1-3)Gal(b1-3)]GalNAc
In short: as §1

[34] = molecular target: GlcNAc(b1-3)Gal(b1-4)GlcNAc(b1-6)[GlcNAc(b1-3)]Gal(b1-4)GlcNAc
In short: as §1

B1: HA-61200 (Pseudomonas aeruginosa), Q02SP8_PSEAB (protein)
chain: MNKCYALVWNVSQGCWNVVSEGSRRRGKPAGAKAAIASVLALLGATALAPAYALPSGGTVVGGSANGEIHLSGGNSLSVNQKVDKLIANWDSFSVAAGERVIFNQPSSSSIALNRVIGTKASDIQGRIDANGQVFLVNPNGVLFGRGAQVNVGGLVASTLDITDAEFNGNSSRYRFTGPSTNGVLNHGGAITAAEGGSIALLGAQVDNRGTVLAQMGGVGLGAGSDLTLNFDGNKLLDIRVDAGVANALASNGGLLKADGGRVLMAARTANALLNTVVNSQGAIEARSLRGKNGRIVLDG
glycan array binding signal (z-score) [1]: -0.238
glycan array binding signal (z-score) [2]: -0.825
glycan array binding signal (z-score) [3]: 0.303
glycan array binding signal (z-score) [4]: -0.969
glycan array binding signal (z-score) [5]: -0.594
glycan array binding signal (z-score) [6]: -0.132
glycan array binding signal (z-score) [7]: 0.556
glycan array binding signal (z-score) [8]: -0.626
glycan array binding signal (z-score) [9]: -0.698
glycan array binding signal (z-score) [10]: -0.783
glycan array binding signal (z-score) [11]: -0.12
glycan array binding signal (z-score) [12]: 0.398
glycan array binding signal (z-score) [13]: 0.1
glycan array binding signal (z-score) (GlcNAc(b1-3)Fuc): 0.303
glycan array binding signal (z-score) (GlcNAc(b1-3)Gal): -0.322
glycan array binding signal (z-score) [14]: 0.694
glycan array binding signal (z-score) (GlcNAc(b1-3)Gal(b1-4)Glc): 0.255
glycan array binding signal (z-score) [15]: -0.897
glycan array binding signal (z-score) [16]: -0.641
glycan array binding signal (z-score) [17]: -0.378
glycan array binding signal (z-score) [18]: 0.934
glycan array binding signal (z-score) [19]: 0.209
glycan array binding signal (z-score) [20]: 1.04
glycan array binding signal (z-score) [21]: 1.52
glycan array binding signal (z-score) [22]: 0.581
glycan array binding signal (z-score) [23]: -0.48
glycan array binding signal (z-score) [24]: 1.42
glycan array binding signal (z-score) [25]: 0.05
glycan array binding signal (z-score) [26]: 0.298
glycan array binding signal (z-score) [27]: 0.525
glycan array binding signal (z-score) [28]: -0.457
glycan array binding signal (z-score) [29]: -0.14
glycan array binding signal (z-score) [30]: 0.291
glycan array binding signal (z-score) [31]: 0.412
glycan array binding signal (z-score) [32]: 0.163
glycan array binding signal (z-score) [33]: -0.009
glycan array binding signal (z-score) [34]: -0.8
